# Data as given in PubChem BioAssay AID1259297 (Sanger Institute, 2017)
# Test: 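Kinases whose loss kills cells on their own or with targeted drugs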 (primary screen)
# Cell system: human RCM1 colorectal cancer cell line
# Reagents: siRNA pool against human genes
# Challenge: separate arms: DMSO vehicle, or one anchor drug at a mild dose: BYL719 1 µM, cetuximab 5 µg/ml, trametinib 10 nM
# Measured: 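Replicate-mean well viability as a share of non-targeting pool control, a robust z-score without drug, and synergy scores for BYL719, cetuximab and trametinib arms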
# Scale: viability z-score, knock-down alone: higher = more viable cells than non-targeting controls; viability, knock-down alone (DMSO): higher = more viable cells; synergy score with trametinib: higher = stronger combined killing with trametinib; synergy score with BYL719: higher = stronger combined killing with BYL719; synergy score with cetuximab: higher = stronger combined killing with cetuximab
# Rule for the call: 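Called essential if knock-down without drug gives a viability robust z-score under -3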
# Calls: active = essential when knocked down alone; inactive = no clear loss of viability alone
# Shown is an unselected part of 794 reagents tested. In the full data, 13 (1.6%) were called active. 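Calls reflect knock-down without drug only; drug synergy is judged separately, with scores above 0.15 counted as synergy.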 A number with no mark means an inactive call. No viability above 1 is reported: the scale is capped. Not stated in the record: the amount of reagent, the time to read-out.
The opening 4 entries, to show the layout:
target,"viability z-score, knock-down alone","viability, knock-down alone (DMSO) (fraction of control)",synergy score with trametinib,synergy score with BYL719,synergy score with cetuximab
BUB1B,0.138,0.929,0.047,0.0326,0.0444
ABL1,0.9,1,-0.0757,-0.0682,-0.0662
NME3,0.883,0.998,0.106,0.0176,-0.00994
MPP2,0.224,0.937,0.0596,-0.0265,0.059

The list itself, repeating the preview:
target,"viability z-score, knock-down alone","viability, knock-down alone (DMSO) (fraction of control)",synergy score with trametinib,synergy score with BYL719,synergy score with cetuximab
BUB1B,0.138,0.929,0.047,0.0326,0.0444
ABL1,0.9,1,-0.0757,-0.0682,-0.0662
NME3,0.883,0.998,0.106,0.0176,-0.00994
MPP2,0.224,0.937,0.0596,-0.0265,0.059
PDGFRB,-1.97,0.734,-0.0418,0.0236,0.0603
FLT4,-0.207,0.897,-0.0351,-0.0667,-0.132
APC,-0.14,0.903,0.0618,0.0303,0.0196
ATM,-0.729,0.849,-0.0822,-0.101,-0.126
PFKFB1,-0.743,0.847,0.0406,0.0335,-0.0282
EPHA6,-1.94,0.736,0.0245,0.0482,0.0109
IRAK3,-2.43,0.69,0.015,0.0342,0.0753
PPP2R1A,0.795,0.99,-0.0615,-0.0299,0.00346
PRPS2,0.488,0.962,-0.0166,0.035,-0.0587
ADCK5,-0.574,0.863,0.0369,-0.0463,0.00526
CSF1R,-1.19,0.806,0.0747,-0.0212,-0.00993
PTK2,-0.675,0.854,-0.0166,0.0367,0.0782
PRKAR1B,0.373,0.951,0.0342,-0.0123,-0.061
RAD21,0.9,1,-0.176,-0.0522,-0.101
BRSK1,-0.0219,0.914,-0.0406,-0.0788,-0.047
CDKL1,0.702,0.982,0.0264,-0.0579,-0.109
WEE1,-2.93,0.645,0.0247,-0.0235,-0.0834
CDK20,-2.1,0.721,0.0522,-0.0518,-0.0682
KDR,-0.376,0.882,-0.0146,-0.00571,0.0372
PRKAB2,-0.569,0.864,0.101,0.0483,-0.00792
BTK,0.9,1,0.0608,-0.0512,-0.102
MAP2K6,0.686,0.98,-0.00757,0.0198,-0.0109
GNAS,-2.52,0.683,-0.12,-0.0161,0.0708
BMPR1A,-0.837,0.839,-0.0808,-0.14,-0.251
FGFR3,-2.32,0.701,-0.0375,-0.0918,-0.105
FGFRL1,0.119,0.927,0.117,0.00973,-0.0612
CDK12,0.249,0.94,-0.0484,-0.0669,-0.061
MAST3,-0.389,0.88,0.0805,-0.0986,-0.212
TBX3,0.488,0.962,-0.0674,-0.108,-0.152
CILK1,0.35,0.949,0.011,-0.0306,-0.145
